Experimental data from article PMC3869375.
Results are given in words; binding and its absence hold for the method and conditions named. Binding seen in cells or lysates may run through a third protein. Some binding calls cover weakened binding; strength is not graded here.

Chains of the proteins cited; added tags and fusions are not shown.
UniProt Q6PDK2: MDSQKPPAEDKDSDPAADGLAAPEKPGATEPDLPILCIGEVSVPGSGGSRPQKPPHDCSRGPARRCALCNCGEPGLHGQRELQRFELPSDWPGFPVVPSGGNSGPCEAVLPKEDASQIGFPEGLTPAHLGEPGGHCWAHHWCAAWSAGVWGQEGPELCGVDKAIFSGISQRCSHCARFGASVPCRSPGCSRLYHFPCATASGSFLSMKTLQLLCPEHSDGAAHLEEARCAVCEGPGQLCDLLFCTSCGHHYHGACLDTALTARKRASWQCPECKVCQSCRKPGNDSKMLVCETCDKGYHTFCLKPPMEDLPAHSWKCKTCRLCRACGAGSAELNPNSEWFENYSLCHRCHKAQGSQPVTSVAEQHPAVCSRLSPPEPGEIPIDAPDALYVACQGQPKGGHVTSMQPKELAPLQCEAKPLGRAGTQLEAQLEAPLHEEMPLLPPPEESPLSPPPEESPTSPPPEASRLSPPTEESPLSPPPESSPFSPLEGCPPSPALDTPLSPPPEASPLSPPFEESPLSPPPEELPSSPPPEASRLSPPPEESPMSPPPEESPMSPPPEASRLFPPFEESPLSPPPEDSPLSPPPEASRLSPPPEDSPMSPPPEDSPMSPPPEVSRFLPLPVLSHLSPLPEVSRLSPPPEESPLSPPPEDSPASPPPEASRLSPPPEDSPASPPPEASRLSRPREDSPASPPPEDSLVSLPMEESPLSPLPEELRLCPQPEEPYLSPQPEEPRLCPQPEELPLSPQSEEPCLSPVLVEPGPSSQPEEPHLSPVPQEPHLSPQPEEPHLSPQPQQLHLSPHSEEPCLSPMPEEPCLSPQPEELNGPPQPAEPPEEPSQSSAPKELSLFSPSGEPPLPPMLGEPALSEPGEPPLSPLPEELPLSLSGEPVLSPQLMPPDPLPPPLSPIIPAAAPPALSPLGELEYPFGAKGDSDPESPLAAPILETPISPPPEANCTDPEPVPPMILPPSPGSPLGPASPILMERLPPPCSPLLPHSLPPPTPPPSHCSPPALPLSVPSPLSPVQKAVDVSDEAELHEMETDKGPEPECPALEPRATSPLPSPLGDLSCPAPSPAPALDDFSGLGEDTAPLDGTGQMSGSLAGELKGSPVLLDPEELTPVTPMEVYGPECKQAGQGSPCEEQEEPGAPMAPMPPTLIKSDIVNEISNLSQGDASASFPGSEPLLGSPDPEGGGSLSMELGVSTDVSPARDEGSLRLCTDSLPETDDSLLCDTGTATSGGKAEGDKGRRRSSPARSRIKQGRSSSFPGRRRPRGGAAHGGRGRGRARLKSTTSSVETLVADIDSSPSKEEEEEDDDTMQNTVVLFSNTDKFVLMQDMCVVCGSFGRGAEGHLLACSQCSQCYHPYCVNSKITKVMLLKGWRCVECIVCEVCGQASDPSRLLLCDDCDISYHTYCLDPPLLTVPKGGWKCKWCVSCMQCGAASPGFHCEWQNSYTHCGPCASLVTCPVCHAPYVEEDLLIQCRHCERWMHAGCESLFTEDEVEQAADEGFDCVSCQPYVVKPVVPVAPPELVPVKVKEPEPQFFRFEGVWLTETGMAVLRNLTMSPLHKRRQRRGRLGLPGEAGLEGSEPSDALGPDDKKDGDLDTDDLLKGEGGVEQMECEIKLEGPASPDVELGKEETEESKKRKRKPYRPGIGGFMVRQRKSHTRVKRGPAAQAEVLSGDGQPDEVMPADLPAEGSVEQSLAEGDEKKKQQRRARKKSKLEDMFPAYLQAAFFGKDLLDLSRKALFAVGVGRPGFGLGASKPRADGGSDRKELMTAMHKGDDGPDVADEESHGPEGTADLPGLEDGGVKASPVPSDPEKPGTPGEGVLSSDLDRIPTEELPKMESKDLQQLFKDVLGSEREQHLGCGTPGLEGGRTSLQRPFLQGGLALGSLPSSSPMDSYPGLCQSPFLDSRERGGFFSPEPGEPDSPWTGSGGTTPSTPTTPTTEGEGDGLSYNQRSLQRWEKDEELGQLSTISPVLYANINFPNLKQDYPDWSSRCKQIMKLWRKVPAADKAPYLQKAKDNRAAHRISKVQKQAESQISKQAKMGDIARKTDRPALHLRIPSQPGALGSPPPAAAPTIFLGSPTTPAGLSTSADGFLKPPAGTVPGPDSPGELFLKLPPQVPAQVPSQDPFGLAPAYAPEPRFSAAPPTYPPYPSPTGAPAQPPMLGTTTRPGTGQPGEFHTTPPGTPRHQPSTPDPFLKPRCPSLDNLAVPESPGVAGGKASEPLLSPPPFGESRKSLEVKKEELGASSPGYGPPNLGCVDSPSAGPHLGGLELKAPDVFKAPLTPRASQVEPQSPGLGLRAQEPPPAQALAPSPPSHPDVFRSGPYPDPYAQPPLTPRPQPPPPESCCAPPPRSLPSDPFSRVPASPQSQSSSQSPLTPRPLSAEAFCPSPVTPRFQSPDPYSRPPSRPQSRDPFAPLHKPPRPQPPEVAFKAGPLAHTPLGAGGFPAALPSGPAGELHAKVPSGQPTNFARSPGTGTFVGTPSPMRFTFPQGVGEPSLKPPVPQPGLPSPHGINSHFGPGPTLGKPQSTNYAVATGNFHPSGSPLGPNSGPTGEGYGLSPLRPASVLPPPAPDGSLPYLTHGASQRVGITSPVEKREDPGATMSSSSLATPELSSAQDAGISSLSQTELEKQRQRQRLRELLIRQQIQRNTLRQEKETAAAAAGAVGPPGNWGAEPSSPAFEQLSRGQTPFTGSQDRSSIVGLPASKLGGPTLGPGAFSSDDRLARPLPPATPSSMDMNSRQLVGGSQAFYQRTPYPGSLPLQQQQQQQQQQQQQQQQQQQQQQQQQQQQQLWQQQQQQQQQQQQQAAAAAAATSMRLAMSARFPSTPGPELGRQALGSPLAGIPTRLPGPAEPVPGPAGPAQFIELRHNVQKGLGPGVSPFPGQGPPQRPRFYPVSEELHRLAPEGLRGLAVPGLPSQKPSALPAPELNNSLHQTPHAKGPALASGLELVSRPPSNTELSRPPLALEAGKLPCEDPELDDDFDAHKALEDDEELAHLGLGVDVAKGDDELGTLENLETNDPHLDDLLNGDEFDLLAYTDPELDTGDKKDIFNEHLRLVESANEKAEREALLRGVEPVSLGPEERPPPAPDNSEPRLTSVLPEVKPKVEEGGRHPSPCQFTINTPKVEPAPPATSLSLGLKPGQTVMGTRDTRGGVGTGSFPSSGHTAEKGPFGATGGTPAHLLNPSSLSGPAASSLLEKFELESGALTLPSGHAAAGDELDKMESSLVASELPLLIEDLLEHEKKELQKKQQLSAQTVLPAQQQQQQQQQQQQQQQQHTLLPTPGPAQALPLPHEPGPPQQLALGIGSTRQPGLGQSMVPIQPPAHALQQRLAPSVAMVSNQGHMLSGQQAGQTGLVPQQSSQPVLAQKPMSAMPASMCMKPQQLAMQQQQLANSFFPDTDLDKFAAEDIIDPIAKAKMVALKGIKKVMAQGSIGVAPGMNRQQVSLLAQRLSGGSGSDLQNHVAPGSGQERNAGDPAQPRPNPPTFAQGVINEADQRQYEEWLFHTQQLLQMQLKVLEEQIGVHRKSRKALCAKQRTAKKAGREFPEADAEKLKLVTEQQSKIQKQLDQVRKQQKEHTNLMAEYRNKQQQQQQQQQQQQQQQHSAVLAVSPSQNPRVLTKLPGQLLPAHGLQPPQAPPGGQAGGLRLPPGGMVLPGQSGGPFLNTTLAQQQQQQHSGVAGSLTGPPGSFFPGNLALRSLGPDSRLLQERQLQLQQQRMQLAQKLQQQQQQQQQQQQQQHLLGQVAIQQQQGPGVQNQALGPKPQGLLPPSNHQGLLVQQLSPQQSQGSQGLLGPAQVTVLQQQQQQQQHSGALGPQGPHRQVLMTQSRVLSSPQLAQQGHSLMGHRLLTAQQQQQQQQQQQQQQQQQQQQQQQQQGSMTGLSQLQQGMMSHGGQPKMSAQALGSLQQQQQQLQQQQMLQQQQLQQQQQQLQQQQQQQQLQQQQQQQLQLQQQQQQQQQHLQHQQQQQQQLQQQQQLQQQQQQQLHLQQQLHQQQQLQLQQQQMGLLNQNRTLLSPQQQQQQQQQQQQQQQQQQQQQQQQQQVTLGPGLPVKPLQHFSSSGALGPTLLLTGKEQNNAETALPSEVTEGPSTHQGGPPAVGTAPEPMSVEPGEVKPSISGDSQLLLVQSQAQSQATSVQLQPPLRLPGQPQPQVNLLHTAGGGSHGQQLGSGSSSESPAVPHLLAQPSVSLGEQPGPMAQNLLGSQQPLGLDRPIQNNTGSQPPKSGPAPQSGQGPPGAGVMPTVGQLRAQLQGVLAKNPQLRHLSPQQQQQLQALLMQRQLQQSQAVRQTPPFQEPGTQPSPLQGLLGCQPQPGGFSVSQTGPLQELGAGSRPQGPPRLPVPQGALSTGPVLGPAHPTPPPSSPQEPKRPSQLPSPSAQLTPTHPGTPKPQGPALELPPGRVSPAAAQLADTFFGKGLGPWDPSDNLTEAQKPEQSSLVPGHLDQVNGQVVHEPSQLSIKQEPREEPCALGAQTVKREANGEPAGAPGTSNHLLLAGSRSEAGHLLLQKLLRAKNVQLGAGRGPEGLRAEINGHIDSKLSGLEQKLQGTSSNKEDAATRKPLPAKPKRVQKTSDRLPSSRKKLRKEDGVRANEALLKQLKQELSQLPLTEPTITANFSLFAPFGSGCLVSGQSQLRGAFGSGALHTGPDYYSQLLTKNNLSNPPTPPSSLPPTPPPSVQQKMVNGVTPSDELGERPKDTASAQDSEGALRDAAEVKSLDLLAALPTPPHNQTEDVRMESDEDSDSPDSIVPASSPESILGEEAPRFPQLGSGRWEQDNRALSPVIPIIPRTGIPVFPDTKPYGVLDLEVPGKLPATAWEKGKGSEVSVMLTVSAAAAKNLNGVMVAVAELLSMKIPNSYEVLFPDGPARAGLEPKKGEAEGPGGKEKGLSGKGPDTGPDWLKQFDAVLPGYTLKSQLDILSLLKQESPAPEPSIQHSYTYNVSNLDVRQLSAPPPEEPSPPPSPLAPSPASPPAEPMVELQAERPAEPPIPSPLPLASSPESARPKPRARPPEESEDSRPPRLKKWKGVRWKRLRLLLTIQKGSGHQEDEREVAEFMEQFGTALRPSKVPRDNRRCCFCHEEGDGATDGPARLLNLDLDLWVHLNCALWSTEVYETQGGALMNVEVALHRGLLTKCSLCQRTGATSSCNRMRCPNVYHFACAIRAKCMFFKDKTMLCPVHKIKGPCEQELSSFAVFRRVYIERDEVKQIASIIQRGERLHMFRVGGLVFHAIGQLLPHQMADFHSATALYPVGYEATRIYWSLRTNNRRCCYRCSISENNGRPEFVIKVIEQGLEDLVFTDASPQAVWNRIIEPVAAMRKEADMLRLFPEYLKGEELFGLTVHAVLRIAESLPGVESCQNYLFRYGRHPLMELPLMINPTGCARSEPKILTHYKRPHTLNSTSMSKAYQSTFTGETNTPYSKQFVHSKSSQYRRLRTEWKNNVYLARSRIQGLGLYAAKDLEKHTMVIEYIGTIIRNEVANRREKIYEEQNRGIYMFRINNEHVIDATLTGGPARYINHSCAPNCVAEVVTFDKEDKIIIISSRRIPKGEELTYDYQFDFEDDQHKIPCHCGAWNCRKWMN
UniProt P28033: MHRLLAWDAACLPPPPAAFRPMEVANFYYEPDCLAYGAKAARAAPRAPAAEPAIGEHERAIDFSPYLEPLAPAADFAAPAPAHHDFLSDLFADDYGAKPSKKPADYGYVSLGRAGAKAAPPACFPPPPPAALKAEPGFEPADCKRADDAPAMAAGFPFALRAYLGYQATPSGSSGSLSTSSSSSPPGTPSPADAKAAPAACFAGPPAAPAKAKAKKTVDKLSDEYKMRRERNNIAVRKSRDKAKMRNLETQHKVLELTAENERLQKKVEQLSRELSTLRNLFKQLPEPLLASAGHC

Target: MLL4 (KMT2D) (mouse (endogenous in preadipocytes induced for adipogenesis)) (UniProt Q6PDK2)
Assay: co-IP; nuclear extracts prepared at day 2 of adipogenesis immunoprecipitated with MLL4 antibody; immunoprecipitates analysed by Western blot

binding: binds
Substance: CCAAT/enhancer-binding protein-β (C/EBPβ) (from UniProt P28033 1-296)
